The source of these data is PubChem BioAssay AID330 (DTP/NCI, 2004).

Molecules are shown by their SMILES. The list shows only some results of the screen, not a fair sample: it gathers tests that were run many times, whatever their T/C, doses with no T/C, and many T/C values between a quarter and a half above the control. Other doses and runs of a compound stand elsewhere. T/C is the treated group as % of the vehicle group. Some doses have a count of surviving animals in place of a T/C: the source holds a T/C of zero for them, seemingly a mark for toxic or unscored doses. Some survivor counts are full or nearly so, which does not show that the dose was tolerated: the source hardly ever lists a survival T/C far under the control, and the zero likely stands for such cases as well. Counts of survivors are from the toxicity check (mostly the fifth day) where no day follows; animals may have died later. Schedules are NCI's codes, taken here to give the interval after Q, in days (D) or hours (H), and the number of doses after X. Some doses were run more than once; the values are given in rising order. For survival time, this PubChem deposit counts one and a half times the control or more as active, and values a quarter to a half above the control carry no call in these data; other NCI protocols may use other cut-offs. Additions like (4×) stand for listed records that agree.

The test has as its system P388 leukemia ip, CD2F1 mice, survival T/C. The test can be described thus: NCI In Vivo Anticancer Drug Screen. Data for tumor model P388 Leukemia (intraperitoneal) in CD2F1 (CDF1) mice. To be noted: T/C endpoint: median survival time, higher T/C = longer survival.
The mark [1] stands for this setting: dose: 120.0 mg/kg/injection, schedule: Q01DX005 (ip), vehicle: saline with Tween-80.
Setting [2] is: dose: 240.0 mg/kg/injection, schedule: Q01DX005 (ip), vehicle: saline with Tween-80.
[3] abbreviates: dose: 200.0 mg/kg/injection, schedule: Q01DX005 (ip), vehicle: Klucel (hydroxypropylcellulose) (HPC).
Setting [4] is: dose: 400.0 mg/kg/injection, schedule: Q04DX002 (ip), vehicle: saline with Tween-80.
[5] abbreviates: dose: 12.5 mg/kg/injection, schedule: Q01DX009 (ip), vehicle: saline.
[6] abbreviates: dose: 100.0 mg/kg/injection, schedule: Q01DX009 (ip), vehicle: saline.
The mark [7] stands for this setting: dose: 200.0 mg/kg/injection, schedule: Q01DX009 (ip), vehicle: saline with Tween-80.
[8] abbreviates: dose: 60.0 mg/kg/injection, schedule: Q01DX005 (ip), vehicle: saline with Tween-80.
[9] abbreviates: dose: 100.0 mg/kg/injection, schedule: Q01DX005 (ip), vehicle: saline with Tween-80.
Where [10] appears, read: dose: 200.0 mg/kg/injection, schedule: Q01DX005 (ip), vehicle: saline with Tween-80.
[11] abbreviates: dose: 50.0 mg/kg/injection, schedule: Q01DX009 (ip), vehicle: saline with Tween-80.
[12] abbreviates: dose: 50.0 mg/kg/injection, schedule: Q01DX009 (ip), vehicle: distilled water + Tween-80.
Where [13] appears, read: dose: 100.0 mg/kg/injection, schedule: Q01DX009 (ip), vehicle: distilled water + Tween-80.
[14] abbreviates: dose: 400.0 mg/kg/injection, schedule: Q01DX005 (ip), vehicle: saline.

Regarding `COc1cc(C2C(C(C)=O)=C(C)Oc3cc4c(cc32)OCO4)cc(OC)c1O` (stereo not drawn), the survivor count was 6 of 6 under setting [1] and 6 of 6 under setting [2].

For the compound `COc1cc(C(c2cc3c(cc2O)OCO3)N2CCOCC2)ccc1O` (stereo not drawn), under setting [2], the survivor count is recorded as 0 of 6.

Regarding `CN(C)C(=Nc1ccc(NC(=O)c2ccc(C(=O)Nc3ccc(N=C(Nc4ccccc4)N(C)C)cc3)cc2)cc1)Nc1ccccc1`, the survivor count by setting is: (dose: 50.0 mg/kg/injection, schedule: Q01DX005 (ip), vehicle: Klucel (hydroxypropylcellulose) (HPC)) 0 of 6; (dose: 100.0 mg/kg/injection, schedule: Q01DX005 (ip), vehicle: Klucel (hydroxypropylcellulose) (HPC)) 0 of 6; under setting [3], 0 of 6.

Turning to `O=c1ccnc[nH]1`, the survivor count under setting [4] is listed as 3 of 6.

Regarding `C/C(=N\N)C1C(=O)c2ccccc2C1=O`, the survivor count is 6 of 6 under setting [5]; 6 of 6 (dose: 50.0 mg/kg/injection, schedule: Q01DX009 (ip), vehicle: saline); 6 of 6 under setting [6]; 4 of 6 (dose: 200.0 mg/kg/injection, schedule: Q01DX009 (ip), vehicle: saline).

`CCCCCC(N)C(C)=O` (stereo not drawn): the survivor count is 3 of 6 under setting [6]; 0 of 6 under setting [7]; 0 of 6 (dose: 400.0 mg/kg/injection, schedule: Q01DX009 (ip), vehicle: saline with Tween-80).

In the case of `CC(C)C1OC(=O)/C=C/C=C/C=C/C=C/C=C/CC(O)C(C)C(O)CC(O)CC(O)CC(O)CC(O)CC(O)CC(O)/C=C/C1C` (stereo not drawn), the survivor count is recorded as 3 of 6 under setting [5] and 0 of 6 (dose: 25.0 mg/kg/injection, schedule: Q01DX009 (ip), vehicle: saline).

With `BrCc1ccc2ccc3ccc(CBr)nc3c2n1`, the survivor count reads like this: under setting [8], 2 of 6; under setting [1], 0 of 6; under setting [2], 0 of 6.

`c1csc(-c2n[se]c(-c3cccs3)n2)c1`: the survivor count is, setting by setting: (dose: 50.0 mg/kg/injection, schedule: Q04DX002 (ip), vehicle: saline with Tween-80) 3 of 6; (dose: 100.0 mg/kg/injection, schedule: Q04DX002 (ip), vehicle: saline with Tween-80) 5 of 6; (dose: 200.0 mg/kg/injection, schedule: Q04DX002 (ip), vehicle: saline with Tween-80) 5 of 6; under setting [4], 0 of 6.

For the compound `Cc1cc2nc3ccc(N(C)C)cc3nc2cc1N`, the survivor count is recorded as 5 of 5 under setting [9] and 0 of 5 under setting [10].

`COc1cccc(CCl)c1`: the T/C under setting [11] was 125 and 131 % of control.

Turning to `C/C(=N\N=C(\[Se])N1CC(C)OC(C)C1)c1ccccn1` (stereo not drawn), the survivor count runs as follows: (dose: 200.0 mg/kg/injection, schedule: Q04DX003 (ip), vehicle: saline with Tween-80) 4 of 6; (dose: 400.0 mg/kg/injection, schedule: Q04DX003 (ip), vehicle: saline with Tween-80) 3 of 6.

On to `CNC(=O)OCc1c(-c2ccccc2)c(-c2ccccc2)n(-c2ccccc2)c1COC(=O)NC`, for which the T/C is 126 and 134 % of control under setting [12]; 144 % of control under setting [13]; 139 % of control (dose: 400.0 mg/kg/injection, schedule: Q01DX009 (ip), vehicle: distilled water + Tween-80).

Consider `c1ccc2c(c1)Sc1ccccc1N2CC1CN2CCC1CC2` (stereo not drawn), for which the survivor count is listed as 0 of 6 under setting [11]; 0 of 6 (dose: 100.0 mg/kg/injection, schedule: Q01DX009 (ip), vehicle: saline with Tween-80); 0 of 6 under setting [7].

With `O=C(NC1CC1)C(Cl)Cl`, under setting [3], the survivor count is reported as 0 of 5.

Take `CC(=O)c1cc2c(cc1C(C)C)CC[C@H]1[C@](C)(C#N)CCC[C@]21C`: the survivor count (dose: 25.0 mg/kg/injection, schedule: Q01DX009 (ip), vehicle: saline sonified) was 6 of 6.

As for `NC(=O)c1c[se]c(C2OC(CO)C(O)C2O)n1` (stereo not drawn), the T/C (dose: 25.0 mg/kg/injection, schedule: Q01DX005 (ip), vehicle: saline) is 134 and 146 % of control; the T/C (dose: 50.0 mg/kg/injection, schedule: Q01DX005 (ip), vehicle: saline) is listed as 148, 158, 160, 168 % of control; the T/C (dose: 100.0 mg/kg/injection, schedule: Q01DX005 (ip), vehicle: saline) is given as 157, 161, 173, 178 % of control; the T/C (dose: 200.0 mg/kg/injection, schedule: Q01DX005 (ip), vehicle: saline) was 163, 175 (2×), 196 % of control; the T/C under setting [14] is listed as 184, 187, 196 % of control. The survivor count under setting [14] was 6 of 6.

As to `CCCCN(CCCC)CC(O)c1c(OC)ccc2ccccc12` (stereo not drawn), the survivor count is reported as 0 of 5 under setting [9] and 0 of 5 under setting [10].

Consider `CC(=O)OCC1C(=O)OCC1C(=O)N1Cc2cc3ccccc3nc2C1` (stereo not drawn), for which the T/C (dose: 64.0 mg/kg/injection, schedule: Q01DX009 (ip), vehicle: saline with Tween-80) was 135 % of control.

Regarding `CN(C)C1C(O)C2Oc3c(cc(O)c4c3C(=O)c3cc5c(c(O)c3C4=O)C(OCCN)CC(C)(O)C5)C(C)(O2)C1O` (stereo not drawn), for the setting “dose: 80.0 mg/kg/injection, schedule: Q01DX009 (ip), vehicle: other”, the T/C was 142 % of control. Besides, the survivor count (dose: 160.0 mg/kg/injection, schedule: Q01DX009 (ip), vehicle: other) is 1 of 6.

Take `CCCCCCNC(=O)C1C(=O)N(CCCCCC)C(=O)/C1=N\N=C(N)N` (stereo not drawn): under setting [2], the survivor count is 3 of 6.

Turning to `O=C(O)C1C(C(=O)O)C2(Cl)C(Cl)=C(Cl)C1(Cl)C2(Cl)Cl.[Mn]` (stereo not drawn), for the setting “dose: 200.0 mg/kg/injection, schedule: Q04DX003 (ip), vehicle: saline sonified”, the survivor count is 2 of 6.

As to `O=C(Nc1ccc(Cl)cc1)Nc1nnc(COc2ccccc2)o1`, the survivor count (dose: 15.0 mg/kg/injection, schedule: Q01DX005 (ip), vehicle: saline with Tween-80) was 6 of 6; the survivor count (dose: 30.0 mg/kg/injection, schedule: Q01DX005 (ip), vehicle: saline with Tween-80) is 6 of 6; the survivor count under setting [8] is 6 of 6.

With `CNC(=O)OCc1cn(-c2ccc(Cl)c(Cl)c2)nc1COC(=O)NC`, the survivor count reads like this: (dose: 0.78 mg/kg/injection, schedule: Q01DX009 (ip), vehicle: distilled water + Tween-80) 6 of 6; (dose: 1.56 mg/kg/injection, schedule: Q01DX009 (ip), vehicle: distilled water + Tween-80) 6 of 6; (dose: 6.25 mg/kg/injection, schedule: Q01DX009 (ip), vehicle: distilled water + Tween-80) 6 of 6; (dose: 12.5 mg/kg/injection, schedule: Q01DX009 (ip), vehicle: distilled water + Tween-80) 6 of 6; (dose: 25.0 mg/kg/injection, schedule: Q01DX009 (ip), vehicle: distilled water + Tween-80) 6 of 6; under setting [12], 6 of 6. Besides, the survivor count is, setting by setting: under setting [13], 3 of 6; (dose: 200.0 mg/kg/injection, schedule: Q01DX009 (ip), vehicle: distilled water + Tween-80) 2 of 6 and 4 of 6.

`O=[N+]([O-])/C=C/c1ccc(Cl)cc1Cl`: the survivor count (dose: 160.0 mg/kg/injection, schedule: Q04DX003 (ip), vehicle: saline with Tween-80) is 2 of 6.

As for `CCOC(=O)NOP(=O)(N1CC1)N1CC1`, the T/C runs as follows: (dose: 25.0 mg/kg/injection, schedule: Q01DX001 (ip), vehicle: saline + alcohol) 144 % of control; (dose: 100.0 mg/kg/injection, schedule: Q01DX001 (ip), vehicle: saline + alcohol) 134 % of control.
